In all, about 33,000 sequences were measured (“E-score (-0.5 to 0.5)”: median about -0.0034, highest 2% from about 0.25 on). Some of the results follow.
What follows are sequences tested against T1, Yap3 (UniProt P38749) (assay: PBM E-score (8-mer binding enrichment) (E-score (-0.5 to 0.5)); higher = stronger / more preferred TF binding). Conditions: protein concentration: 100 nM; construct: GST-full length.
T1 sequence: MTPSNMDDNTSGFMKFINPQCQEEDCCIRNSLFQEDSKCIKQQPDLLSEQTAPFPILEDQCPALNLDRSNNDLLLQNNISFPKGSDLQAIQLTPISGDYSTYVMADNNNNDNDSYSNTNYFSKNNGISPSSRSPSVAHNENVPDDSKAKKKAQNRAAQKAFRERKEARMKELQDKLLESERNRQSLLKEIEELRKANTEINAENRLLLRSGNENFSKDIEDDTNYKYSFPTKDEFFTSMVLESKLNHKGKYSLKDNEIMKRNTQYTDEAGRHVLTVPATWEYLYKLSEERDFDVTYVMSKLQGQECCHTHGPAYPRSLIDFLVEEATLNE
Method in brief: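 For each ungapped eight-base word taken together with its reverse complement, the Universal PBM Analysis Suite assigned an E-score. Binding data came from GST-tagged yeast transcription factors, applied at about 100-200 nM, on universal all-10-mer Agilent arrays made double-stranded by primer extension. Fluorescent anti-GST marked bound protein, and scans were normalised with masliner.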

In order of falling “PBM E-score” value:
1. ATTATCGC  0.304
2. ATTAGGTC  0.286
3. ATTAACAC  0.273
4. ATTATTAG  0.259
5. ACTAAGAT  0.255
6. ATGTATCG  0.249
7. ACAACTTC  0.247
8. CTATTTAC  0.238
9. CGGAAAAA  0.237
10. TGTTACAA  0.233
11. TTACGCAA  0.223
12. CAAACTTA  0.209
13. TTATGAAA  0.204
14. TCATGTAA  0.196
15. ATTTAACA  0.195
16. AATCAAAT  0.191
17. ATTTACCC  0.186
18. AACAACTT  0.185
19. TGGTAAAA  0.177
20. AAGATTAA  0.167
21. AACATCAA  0.164
22. AAATGCGT  0.162
23. TTCTCAAA  0.156
24. GAATTTGA  0.15
25. ACGGTGAA  0.15
26. GCTGCAAA  0.142
27. ACCATAAA  0.141
28. AACTCGAG  0.139
29. GAATTAGA  0.136
30. CAGATTAC  0.135
31. AACGCATA  0.132
32. CATATGAA  0.132
33. GAGAGGAA  0.128
34. ATACCTAT  0.124
35. ATTAGTAG  0.123
36. AACTACCA  0.119
37. AGCTAATC  0.114
38. TATTGCGA  0.113
39. CATAACAG  0.107
40. AACTGTGG  0.106
41. CTAAAGCA  0.105
42. CGCAATAG  0.105
43. CTTCAATA  0.105
44. AAGCTTAA  0.105
45. TACGCTCA  0.103
46. GAGTGTCA  0.0969
47. AGTCACAG  0.0936
48. ACTACAGT  0.0926
49. TAGTACTA  0.0913
50. ACGATGTA  0.0868
51. CTACGTTA  0.0868
52. ATGGACAA  0.0861
53. CGAGTGCG  0.08
54. ATTTGTAC  0.0689
55. CCAATTCC  0.0686
56. ATGCTTAA  0.0675
57. AATTGTAA  0.066
58. TGGCGAAA  0.0657
59. CTCCCATC  0.0634
60. AATCACGC  0.0615
61. ATATATTG  0.0595
62. GTGATAAA  0.0592
63. AGGGTATG  0.0575
64. GTACAGTA  0.0574
65. CCCAACAA  0.0572
66. ATACTCAT  0.0558
67. CTTAATAC  0.0534
68. CGGAGAAC  0.0479
69. ACACTTTG  0.0475
70. AACTTGTA  0.0466
71. TAGCACAA  0.0453
72. CAATACCC  0.0449
73. ACAGTGGA  0.041
74. ACGCTCGC  0.0373
75. CATAGACA  0.0318
76. ACCAGAAC  0.0271
77. ACACCTCT  0.0264
78. AATGCAAG  0.0231
79. ACCGAGTA  0.0231
80. CGTCTCAC  0.022
81. CAATCCGC  0.0216
82. CGATGATA  0.0199
83. CTGTGTTC  0.0199
84. AACAGTGA  0.0184
85. AAGCTACA  0.0166
86. CATTCCTC  0.0145
87. GAATTAAA  0.00976
88. TAGCCAGA  0.0046
89. TAGACGAA  0.00243
90. GCGAGTGA  0.00111
91. CTAAACCC  0.00034
92. CCCAATAC  -0.00303
93. CGTCTCAG  -0.00621
94. GGCTTATA  -0.00779
95. AAAGATCG  -0.00787
96. GGTCGTCA  -0.0105
97. TAAGACTA  -0.0149
98. ATTTTGGG  -0.0152
99. GTACTCGA  -0.0163
100. ACAGGGAA  -0.0163
101. CACATACA  -0.0173
102. CCACGGAG  -0.0187
103. GAAACCTA  -0.0189
104. GCGTTCAC  -0.0294
105. CGAGCGTA  -0.0301
106. TCCAAGAA  -0.0303
107. ACCGACGG  -0.0314
108. CCTAAACC  -0.0339
109. AAGAACCC  -0.0342
110. CGGCCTCA  -0.0347
111. ATAGAGGG  -0.0352
112. GTCGTCAC  -0.0421
113. CGACACAG  -0.044
114. AGGAACGG  -0.045
115. ATCAGGTG  -0.047
116. CTTAAAGA  -0.0487
117. TCCGAAGA  -0.0515
118. ATGTTGCC  -0.0527
119. CATCACGC  -0.0538
120. GCGTCCAA  -0.0598
121. CCAGTTTC  -0.063
122. CTGGTATA  -0.0636
123. CCCAAGCG  -0.0714
124. CTAGATCC  -0.0756
125. GTTGTTCA  -0.0828
126. GAGATCTA  -0.0844
127. AGCACTTA  -0.0855
128. CATAGCTC  -0.0875
129. GCCCACCA  -0.0896
130. GTGTAAAC  -0.0971
131. GAGAATCC  -0.102
132. ATTGGGCG  -0.105
133. GCCACGGA  -0.109
134. CAAGCCTG  -0.113
135. CAGAAAGG  -0.115
136. GTCCACGA  -0.115
137. AGAGTGCA  -0.118
138. GAGCTGAA  -0.121
139. AGAAAGGA  -0.123
140. GGTCTCAA  -0.131
141. AGCATGCT  -0.134
142. CGCGTCAG  -0.135
143. CGATGGCA  -0.145
144. CGAGAGAC  -0.146
145. AGCTCGTC  -0.158
146. ACCTCTCC  -0.165
147. CTTTGGTA  -0.173
148. TCCCGCCA  -0.173
149. ACTTCTCC  -0.174
150. GAGTCTGA  -0.176
151. CAGGGAAG  -0.179
152. GACTATCC  -0.189
153. GAAGGGAA  -0.19
154. GGAGCTAC  -0.192
155. GCCTGTGA  -0.192
156. GACCCTTA  -0.199
157. GGAGTGTA  -0.206
158. AAGCTAAG  -0.219
159. AGCCCAGC  -0.225
160. AGGCAGGC  -0.226
161. AGAGTCTG  -0.234
162. CAGAGACA  -0.245
163. ACCGCCGG  -0.285
164. GCTCTGCA  -0.287
165. CACCCAGG  -0.289
166. CAGGGTCC  -0.29
167. CCCCCGCA  -0.305
168. CTAGAGTC  -0.31
169. CGTAGGTC  -0.316
170. AAGGCATC  -0.332
171. CACCACGG  -0.366
172. AGCGGCCC  -0.374

From the supplement of paper PMC3334620
